Test results reported in patent US10731129B2, “Methods of evaluating immunogenicity of an agent using an artificial tissue construct” (CHILDREN'S MEDICAL CENTER CORPORATION, priority 2012, dated 2020).
Entries after “also recorded” stand apart in the source; their conditions may differ. For at least one compound, name, drawing or mass did not settle the structure.

System: CD 33+ Mo-colonized TCs
Type: cell-based, human

SMILES: CCOCc1nc2c(N)nc3ccccc3c2n1CC(C)(C)O [R848, Resiquimod]
- reverse migrated mature MoDCs, fold increase over unstimulated: significantly induced mature MoDCs from NTCs and ATCs; also recorded: induce maturation of CD33+ and/or CD14+ monocyte-derived DCs in NTCs and ATCs
